Reference: patent publication US20200299408A1
These are yes or no findings as the source states them, for the method shown. Binding can be weak; no strength is given.

B1: 71H7 (antibody, IgG1, V domains shown)
VH: QIQLVQSGPELKKPGETVKISCKASGYTFTNYGMNWVKQAPGKGLKWMGWINTNTGKPTYAEDFKGRFAFSLETSASTAYLQINNLKNEDTATYFCARRGDYRYAWFTYWGQGTLVTVSA
VL: QAVVTQESALTTSPGGTVILTCRSSTGAVTTSNYANWVQEKPDHLFTGLIGGTSNRAPGVPVRFSGSLIGDKAALTITGAQTEDDAMYFCALWYSTHFVFGGGTKVTV
B2: 72H6 (antibody, IgG2a, V domains shown)
VH: EVQLQQSGPELVKPGASVKISCKASGYSFTSYYIHWVKQRPGQGLEWIGWIFPGSDNTKYNEKFKGKATLTADTSSSTAYMQLSSLTSEDSAVYFCARNGNYAMDYWGQGTSVTVSS
VL: EIVLSQSPSSLAVSAGEKVTMSCKSSQSLLNSRTRKNYLAWYQQKPGQSPKLLIYWASTRESGVPDRFTGSGSGTDFTLTISSVQAEDLAVYYCKQSYTLRTFGGGTKLEIK
B3: 21B2 (antibody, IgG3, V domains shown)
VH: QVQLQQSGPELVKPGASVRISCKASGYTFTSDYIHWMRQRPGQGLEWIGWIYFGNVNTKYNEKFKGKAILTADKFSSTAYMQLSSLTSEDSAVYFCARDGGYYFDYWGQGTTLTVSS
VL: DIVMTQSPSSLAVSAGEKVTMSCKSSQSLLNSRTRKNYLAWYQQKPGQSPKLLIYWASTRESGVPDRFTGSGSGTDFTLTISSVQAEDLAVYYCKQSFTLRTFGQGTKVEIK
B4: 19B1 (antibody, IgG2b, V domains shown)
VH: EVQLQQSGPELVKPGASVRISCKASGYTFTSYYIHWMKQRPGQGLEWIGWIYPGNVNTKYNEKFKGKATLTADNSSSTANMQLSSLTSEDSAVYFCARNHDYYFDYWGQGTTLTVSS
VL: GIVMTQSPSSLAVSAGEKVTMSCKSSQSLLNSRTRKNYLAWYQQKPGQSPKLLIYWASTRESGVPDRFTGSGSGTDFTLTISSVQAEDLAVYYCKQSYILRTFGGGTKLEIK
B5: 125A1 (antibody, IgG3, V domains shown)
VH: QVQLQQSGPELVKPGASVKMSCKASGYTFTSHYLHWVKQSPGQGLEWIVWINPGDGNVKYNEKFKDKTTVTADRSSTTVHMFLSSLTSEDSAIYFCARDGAYYFDYWGQGTTLTVSS
VL: DIVMTQSPSSLAVSAGETVTMNCKSSQSLLNSRTRKNYLAWYQQKPGQSPKLLIYWASTRESGVPDRFTGSGSGTDFTLTISTVQAEDLAVYYCKQSYTLRTFGQGTKVEIK
B6: 40G5 (antibody, V domains shown)
VH: QVQLQQSGPELVKPGTSVKMSCKASGYTFTNYYIHWVRQRPGQGLEWIGWIYPGDVSTKYNEKFKGKTTLTADKSSSTAYMLLSGLTSEDSAIYFCARDGYSFYYFDYWGQGTTLTVSS
VL: DIVLTQSPSSLAVSAGEKVTMSCKSSQSLLNSRTRKNYLTWYQQKPGQSPKLLIYWASTRDSGVPDRFSGSGSGTDFTLTISSVQAEDLAVYYCTQSYTLRTFGGGTKLEIK
B7: 38E4 (antibody, IgG3, V domains shown)
VH: QVQLQQSGPELVKPGASVTISCTASGFTFTSYYIHWVRQRPGQGLEWIGWIYPENDNTKYNEKFKDKATLTADTSSSTAYMQLSSLTSEDSAVYYCARDGYSRYYFDYWGQGTTLTVSS
VL: DIVMTQSPSFLAVSAGEKVTMSCKSSQSLLNSRTRKNYLAWYQQRPGQSPKLLIYWTSTRKSGVPDRFTGSGSGTDFTLTISSVQAEDLAIYYCKQSFILRTFGGGTKLEIK
B8: 30A1 (antibody, IgG1, V domains shown)
VH: QVQLKESGPGLVAPSQSLSITCTVSGFSLTNYAIHWVRQPPGKGLDWLGVIWAGGNTKYNSALMSRLSFSKDNSKSQVFLEINSLQTDDTAMYYCAREDSSGYVALDYWGQGTSVTVSS
VL: NIVMTQSPSSLAVSAGEKVTMSCKSSQSLLSGRTRKNYLAWYQQKPGQSPKLLIYWASTRESGVPDRFTGSGSGTDFTLTISSVQAEDLAVYYCKQSYYLLTFGAGTKLELK
B9: 13A3 (antibody, IgG2b, V domains shown)
VH: EVQLQQSGPELVKPGASVRISCKASGYTFTSYYIHWMKQRPGQGLEWIGWIYPGNVNTKYNEKFKGKATLTADNSSSTANMQLSSLTSEDSAVYFCARNHDYYFDYWGQGTTLTVSS
VL: DIVLTQSPSSLAVSAGEKVTMSCKSSQSLLNSRTRKNYLAWYQQKPGQSPKLLIYWASTRESGVPDRFTGSGSGTDFTLTISSVQAEDLAVYYCKQSYILRTFGGGTKLEIK

biological target: cyno CD3 on cyno PBMCs (cynomolgus monkey); assay: FACS on cyno PBMCs

binding, binds:
B1
B2
B3
B4
B5
B6
B7
B8
B9
